First the molecules themselves.
B1: mt-2-oxoisovalerate dehydrogenase subunit beta (protein, UniProt P35738 49-390)
chain: VAHFTFQPDPESLQYGQTQKMNLFQSITSALDNSLAKDPTAVIFGEDVAFGGVFRCTVGLRDKYGKDRVFNTPLCEQGIVGFGIGIAVTGATAIAEIQFADYIFPAFDQIVNEAAKYRYRSGDLFNCGSLTIRAPWGCVGHGALYHSQSPEAFFAHCPGIKVVIPRSPFQAKGLLLSCIEDKNPCIFFEPKILYRAAVEQVPVEPYKIPLSQAEVIQEGSDVTLVAWGTQVHVIREVASMAQEKLGVSCEVIDLRTIVPWDVDTVCKSVIKTGRLLISHEAPLTGGFASEISSTVQEECFLNLEAPISRVCGYDTPFPHIFEPFYIPDKWKCYDALRKMINY
B2: SAMM50 (rat) (protein, UniProt Q6AXV4 1-469)
chain: MGTVHARSLEPLPSSGTDFGALGEEAEFVEVEPEAKQEILENKDVVVQHVHFDGLERTKDDIIICEIGEVFKAKNLIEVMRRSHEAREKLLRLGIFRQVDVLIDTCHGEDALPNGLDVTFEVTELRRLTGSYNTMVGNNEGSMVLGLKLPNLLGRAEKVTFQFSYGTKETSYGLSFFKPQPGNFEKNFSVNLYKVTGQFPWSSLRETDRGVSAEYSFPLCKTSHTVKWEGVWRELGCLARTASFAVRKESGHSLKSSLSHAMVIDSRNSSILPRRGALLKVNQELAGYTGGDVSFIKEDFELQLNKPLVLDSVFSTSLWGGMLVPIGDKLSSIADRFYLGGPTSVRGFSMHSIGPQSEGDYLGGEAYWAGGLHLYTPLPFRPGQGGFGELFRTHFFLNAGNLCNLNYGEGPRAHIRKLAECIRWSYGAGIVLRLGNIARLELNYCIPMGVQRGDRICDGVQFGAGIRFL
B3: mt-2-oxoisovalerate dehydrogenase subunit alpha (protein, UniProt P11960 42-441)
chain: PSLDDKPQFPGASAEFVDKLEFIQPNVISGIPIYRVMDRQGQIINPSEDPHLPQEEVLKLYRSMTLLNTMDRILYESQRQGRISFYMTNYGEEGTHVGSAAALERTDLVFGQYREAGVLMYRDYPLELFMAQCYGNVSDPGKGRQMPVHYGCKERHFVTISSPLATQIPQAVGAAYAAKRANANQIVICYFGEGAASEGDAHAGFNFAATLECPIIFFCRNNGYAISTPTSEQYRGDGIAARGPGYGIMSIRVDGNDVFAVYNATKEARRRAVAENQPFLIEAMTYRIGHHSTSDDSSAYRSVDEVNYWDKQDHPISRLRQYLLNQGWWDEEQEKAWRKQSRKKVMEAFEQAERKLKPNPSLLFSDVYQEMPAQLRRQQESLARHLQTYGEHYPLDHFDK
B4: mt-Lon protease homolog (rat) (protein, UniProt Q924S5 66-950)
chain: LWDAGSRGGSDETSEGGVEDGATASSGEGPVVTALAPMTVPDVFPHLPLIAISRNPVFPRFIKIVEVKNKKLVELLRRKVRLAQPYVGVFLKRDDNNESDVVESLDEIYHTGTFAQIHEMQDLGDKLRMIVTGHRRIHISRQLEVEPEGLEPEAENKQKSRRKLKRGKKEVGDELGAKPQLEMVTEATSDTSKEVLMVEVENVAHEDFQVTEEVKALTAEIVKTIRDIIALNPLYRESVLQMMQAGQRVVDNPIYLSDMGAALTGAESHELQDVLEETNILKRLYKALSLLKKEFELSKLQQRLGREVEEKIKQTHRKYLLQEQLKIIKKELGLEKDDKDAIEEKFRERLKELVVPKHVMDVVDEELSKLALLDNHSSEFNVTRNYLDWLTSIPWGRQSDENLDLARAQSVLEEDHYGMEDVKKRVLEFIAVSQLRGSTQGKILCFHGPPGVGKTSIARSIARALGREYFRFSVGGMTDVAEIKGHRRTYVGAMPGKIIQCLKKTKTENPLVLIDEVDKIGRGYQGDPSSALLELLDPEQNANFLDHYLDVPVDLSKVLFICTANVTDTIPEPLRDRMEMINVSGYVAQEKLAIAERYLVPQARTLCGLDESKAQLSATVLTLLIKQYCRESGVRNLQKQVEKVLRKAAYKIVSGEAQTVHVTPENLQDFVGKPVFTVERMYDVTPPGVVMGLAWTAMGGSTLFVETSLRRPQPSGSKEDKDGSLEVTGQLGDVMKESARIAYTFARAFLMEQDPENDFLVTSHIHLHVPEGATPKDGPSAGCTIVTALLSLALGQPVLQNLAMTGEVSLTGKVLPVGGIKEKTIAAKRAGVTCIILPAENRKDFSDLAPFITEGLEVHFVEHYRDIFRIAFPLREHQEALAVER
B5: mt-phosphate carrier protein (rat) (protein, UniProt P16036 45-356)
chain: AVEGYSCEFGSMKYYALCGFGGVLSCGLTHTAVVPLDLVKCRMQVDPQKYKGIFNGFSITLKEDGVRGLAKGWAPTLIGYSMQGLCKFGFYEVFKALYSNILGEENTYLWRTSLYLAASASAEFFADIALAPMEAAKVRIQTQPGYANTLREAVPKMYKEEGLNAFYKGVAPVWMRQIPYTMMKFACFERTVEALYKFVVPKPRSECTKAEQLVVTFVAGYIAGVFCAIVSHPADSVVSVLNKEKGSTASQVLQRLGFRGVWKGLFARIIMIGTLTALQWFIYDSVKVYFRLPRPPPPEMPESLKKKLGLTE
B6: ADP/ATP translocase isoform 1 (rat) (protein, UniProt Q05962 1-298)
chain: MGDQALSFLKDFLAGGIAAAVSKTAVAPIERVKLLLQVQHASKQISAEKQYKGIIDCVVRIPKEQGFLSFWRGNLANVIRYFPTQALNFAFKDKYKQIFLGGVDRHKQFWRYFAGNLASGGAAGATSLCFVYPLDFARTRLAADVGKGSSQREFNGLGDCLTKIFKSDGLKGLYQGFSVSVQGIIIYRAAYFGVYDTAKGMLPDPKNVHIIVSWMIAQSVTAVAGLVSYPFDTVRRRMMMQSGRKGADIMYTGTVDCWRKIAKDEGRKAFFKGAWSNVLRGMGGAFVLVLYDEIKKYV
B7: mt-proton/calcium exchanger protein LETM1 (rat) (protein, UniProt Q5XIN6 115-739)
chain: EDSMIEKSLKSLKDKNKKLEEGGPVYSPPAQVVVKKSLGQKILDELKHYYHGFRLLWIDTKIAARMLWRILNGHTLTRRERRQFLRICADLFRLVPFLVFVVVPFMEFLLPVVVKLFPNMLPSTFETQSIKEERLKKELRVKLELAKFLQDTIEEMALKNKAAKGNATKDFSAFFQKIRETGERPSNEEIMRFSKLFEDELTLDNLTRPQLVALCKLLELQSIGTNNFLRFQLTMRLRSIKADDKLISEEGVDSLTVKELQAACRARGMRALGVTEDRLKGQLKQWLDLHLYHEIPTSLLILSRAMYLPDTLSPADQLKSTLQTLPEIVAKEAQVKAAEVEGEQVDNKAKLEATLQEEAAIQQEHLEELKRAAETAKDIQPEVAEATVPGRPGAELQPKMVDVIPPSEILKDTAPVLEGLKGEEITKEEIDILSDACSKLKEQKKSLTKEKEELELLKEDVQDYSEDLQEIKKELSKTGDEKYIEESTASKRLSKRVQQMIGQIDGLITQLETTQQNGKLDPAAASSPTGESVISVDELISAMKQIKHIPEHKLISLTSALDENKDGNINIDDLVKVIDLVNKEDVQISTTQVAEIVATLEKEEKVEEKEKAKEKAEKEAAEVKN
B8: TOMM22 (rat) (protein, UniProt Q75Q41 1-142)
chain: MAAAVAAAGAGEPLSPEELVPKAEAEKAEEDLEEDDDDELDETLSERLWGLTEMFPERVRSAAGATFDLSLFVAQKMYRFSRAALWIGTTSFMILVLPVVFETEKLQMEQQQQLQQRQILLGPNTGLSGGMPGALPPLPGKI
B9: glutathione S-transferase kappa 1 (protein, UniProt P24473 1-226)
chain: MGPAPRVLELFYDVLSPYSWLGFEVLCRYQHLWNIKLKLRPALLAGIMKDSGNQPPAMVPHKGQYILKEIPLLKQLFQVPMSVPKDFFGEHVKKGTVNAMRFLTAVSMEQPEMLEKVSRELWMRIWSRDEDITESQNILSAAEKAGMATAQAQHLLNKISTELVKSKLRETTGAACKYGAFGLPTTVAHVDGKTYMLFGSDRMELLAYLLGEKWMGPVPPTLNARL

These are yes or no findings as the source states them, for the method shown. Binding seen in cells or lysates may run through a third protein. Here binding means that the protein was enriched with, or labelled near, the bait; the list need not be complete.

This assay has as its target Bcl-2 nineteen kilodalton interacting protein 3 (rat) (rat (endogenous in LV myocardium and adult cardiac myocytes)). The experiment in a line: affinity purification with mass spectrometry; 500 ug lysate of rat LV myocardium (Sham n = 3, pressure overload HFrEF n = 3) incubated with 10 ug mouse monoclonal BNIP3 antibody (Abcam ab10433); eluate on SDS-PAGE, in-gel trypsin digestion, nano-LC-MS/MS, label-free quantification.
B1: the binding entry was “binds”.

With B2, the binding entry was “binds”.

Regarding B3, the binding entry was “binds”.

Turning to B4, the binding entry is given as “binds”.

Consider B5, for which the binding entry is on record as “binds”.

B6: the binding entry is given as “binds”.

For the molecule B7, the binding result is given as “binds”.

Turning to B8, the binding result is “binds”.

Regarding B9, the binding result is listed as “binds”.

For the origin of these results see paper PMC9105187.
